Source: the supplement of paper PMC10849652
The list shows a part of the results.

Amino acid sequences for entries named in this document (tags omitted). A change or cut given only in a name is not applied to a line headed by its entry.
UniProt Q15369, whole entry, looked up: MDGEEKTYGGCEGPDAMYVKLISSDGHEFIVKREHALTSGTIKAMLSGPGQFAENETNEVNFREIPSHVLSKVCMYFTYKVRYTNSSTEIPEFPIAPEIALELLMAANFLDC
UniProt Q969X5: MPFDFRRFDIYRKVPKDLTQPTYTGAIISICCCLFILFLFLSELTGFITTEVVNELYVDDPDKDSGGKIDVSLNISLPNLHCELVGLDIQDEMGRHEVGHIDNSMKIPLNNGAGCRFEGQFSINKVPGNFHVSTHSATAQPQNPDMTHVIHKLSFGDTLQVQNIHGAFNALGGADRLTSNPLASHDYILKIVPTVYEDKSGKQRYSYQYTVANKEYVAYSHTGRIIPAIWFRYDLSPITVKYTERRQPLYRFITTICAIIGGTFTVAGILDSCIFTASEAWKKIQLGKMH
UniProt O95834: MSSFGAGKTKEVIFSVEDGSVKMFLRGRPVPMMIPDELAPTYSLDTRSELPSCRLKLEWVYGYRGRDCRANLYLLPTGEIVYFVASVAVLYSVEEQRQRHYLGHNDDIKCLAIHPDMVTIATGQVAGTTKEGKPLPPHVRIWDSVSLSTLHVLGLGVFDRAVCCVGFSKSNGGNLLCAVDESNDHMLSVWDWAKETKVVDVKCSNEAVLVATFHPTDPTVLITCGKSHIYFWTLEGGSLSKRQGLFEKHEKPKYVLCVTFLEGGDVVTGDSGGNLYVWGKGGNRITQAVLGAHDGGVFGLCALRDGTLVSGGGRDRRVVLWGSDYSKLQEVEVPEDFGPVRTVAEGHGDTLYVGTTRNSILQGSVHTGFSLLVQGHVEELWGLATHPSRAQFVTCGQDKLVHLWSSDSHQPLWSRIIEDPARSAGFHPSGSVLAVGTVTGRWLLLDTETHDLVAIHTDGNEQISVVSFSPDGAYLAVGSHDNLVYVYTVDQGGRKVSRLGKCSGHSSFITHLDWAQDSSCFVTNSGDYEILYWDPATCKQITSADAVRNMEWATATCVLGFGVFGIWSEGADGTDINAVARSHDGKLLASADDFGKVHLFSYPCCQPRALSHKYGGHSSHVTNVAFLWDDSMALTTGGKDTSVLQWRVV
UniProt O75356: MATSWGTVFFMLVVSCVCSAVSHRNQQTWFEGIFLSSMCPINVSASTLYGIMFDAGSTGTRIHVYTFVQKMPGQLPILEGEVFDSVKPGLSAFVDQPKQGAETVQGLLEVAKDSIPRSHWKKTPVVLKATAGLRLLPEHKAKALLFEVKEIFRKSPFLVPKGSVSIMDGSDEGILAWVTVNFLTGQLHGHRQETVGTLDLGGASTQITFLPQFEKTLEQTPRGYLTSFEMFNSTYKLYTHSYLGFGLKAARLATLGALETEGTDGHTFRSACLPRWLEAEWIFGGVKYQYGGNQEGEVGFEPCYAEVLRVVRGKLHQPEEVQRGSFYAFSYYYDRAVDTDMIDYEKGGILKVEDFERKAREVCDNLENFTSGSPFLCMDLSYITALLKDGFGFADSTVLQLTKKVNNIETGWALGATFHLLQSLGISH
UniProt Q32P44: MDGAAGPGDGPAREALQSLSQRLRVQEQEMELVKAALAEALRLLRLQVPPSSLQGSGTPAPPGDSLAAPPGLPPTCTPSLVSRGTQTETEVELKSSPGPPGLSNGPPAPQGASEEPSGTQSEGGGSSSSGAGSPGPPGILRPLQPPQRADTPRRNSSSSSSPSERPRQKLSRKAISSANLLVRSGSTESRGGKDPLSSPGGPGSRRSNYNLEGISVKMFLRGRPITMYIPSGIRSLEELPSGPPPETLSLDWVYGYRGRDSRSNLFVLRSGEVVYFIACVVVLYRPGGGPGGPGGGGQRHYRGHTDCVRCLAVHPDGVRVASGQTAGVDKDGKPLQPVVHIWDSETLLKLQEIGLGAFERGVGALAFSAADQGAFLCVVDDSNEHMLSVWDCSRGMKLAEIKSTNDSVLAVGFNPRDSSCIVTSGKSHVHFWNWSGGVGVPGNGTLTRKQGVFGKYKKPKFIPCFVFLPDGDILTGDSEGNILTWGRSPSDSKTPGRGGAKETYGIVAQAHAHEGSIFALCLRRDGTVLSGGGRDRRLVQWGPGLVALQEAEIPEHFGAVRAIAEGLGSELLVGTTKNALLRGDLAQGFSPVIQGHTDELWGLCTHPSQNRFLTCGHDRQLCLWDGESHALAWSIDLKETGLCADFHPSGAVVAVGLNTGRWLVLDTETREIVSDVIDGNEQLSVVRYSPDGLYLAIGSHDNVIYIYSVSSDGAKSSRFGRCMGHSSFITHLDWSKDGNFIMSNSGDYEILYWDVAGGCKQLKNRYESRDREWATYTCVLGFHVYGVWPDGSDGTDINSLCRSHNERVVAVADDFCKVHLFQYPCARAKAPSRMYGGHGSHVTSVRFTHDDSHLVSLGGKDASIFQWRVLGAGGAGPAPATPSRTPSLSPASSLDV
UniProt P19525: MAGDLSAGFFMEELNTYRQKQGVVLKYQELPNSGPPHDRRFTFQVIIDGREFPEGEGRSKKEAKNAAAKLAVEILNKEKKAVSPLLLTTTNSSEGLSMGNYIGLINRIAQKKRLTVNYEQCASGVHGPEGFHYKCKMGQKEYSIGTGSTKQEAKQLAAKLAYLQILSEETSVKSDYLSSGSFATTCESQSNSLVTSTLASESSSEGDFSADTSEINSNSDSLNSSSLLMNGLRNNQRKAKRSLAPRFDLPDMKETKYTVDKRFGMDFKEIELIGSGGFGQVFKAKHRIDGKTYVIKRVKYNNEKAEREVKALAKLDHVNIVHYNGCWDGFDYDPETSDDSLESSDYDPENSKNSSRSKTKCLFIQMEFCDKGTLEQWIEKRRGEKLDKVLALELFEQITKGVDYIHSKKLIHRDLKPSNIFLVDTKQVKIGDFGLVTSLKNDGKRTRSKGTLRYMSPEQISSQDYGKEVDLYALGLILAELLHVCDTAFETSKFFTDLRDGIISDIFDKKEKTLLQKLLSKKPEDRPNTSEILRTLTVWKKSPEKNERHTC
UniProt Q92556, whole entry, looked up: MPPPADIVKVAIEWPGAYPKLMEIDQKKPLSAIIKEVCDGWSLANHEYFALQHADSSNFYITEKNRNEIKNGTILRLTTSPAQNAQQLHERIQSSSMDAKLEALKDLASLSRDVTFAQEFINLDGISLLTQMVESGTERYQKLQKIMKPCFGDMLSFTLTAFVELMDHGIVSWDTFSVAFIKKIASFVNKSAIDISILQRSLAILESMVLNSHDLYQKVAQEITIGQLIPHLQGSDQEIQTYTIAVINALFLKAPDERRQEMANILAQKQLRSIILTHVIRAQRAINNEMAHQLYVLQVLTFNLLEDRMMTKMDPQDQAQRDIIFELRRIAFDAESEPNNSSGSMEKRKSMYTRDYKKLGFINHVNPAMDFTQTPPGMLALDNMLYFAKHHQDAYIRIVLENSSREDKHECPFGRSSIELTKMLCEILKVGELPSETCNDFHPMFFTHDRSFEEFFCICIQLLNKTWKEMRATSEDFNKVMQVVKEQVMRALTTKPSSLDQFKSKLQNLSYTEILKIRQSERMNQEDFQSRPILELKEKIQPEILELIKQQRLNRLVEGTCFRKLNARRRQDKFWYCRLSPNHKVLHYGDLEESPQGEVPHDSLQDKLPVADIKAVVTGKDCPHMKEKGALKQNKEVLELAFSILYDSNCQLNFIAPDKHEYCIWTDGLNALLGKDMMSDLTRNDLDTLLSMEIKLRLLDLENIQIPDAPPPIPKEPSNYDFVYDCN
UniProt P32519: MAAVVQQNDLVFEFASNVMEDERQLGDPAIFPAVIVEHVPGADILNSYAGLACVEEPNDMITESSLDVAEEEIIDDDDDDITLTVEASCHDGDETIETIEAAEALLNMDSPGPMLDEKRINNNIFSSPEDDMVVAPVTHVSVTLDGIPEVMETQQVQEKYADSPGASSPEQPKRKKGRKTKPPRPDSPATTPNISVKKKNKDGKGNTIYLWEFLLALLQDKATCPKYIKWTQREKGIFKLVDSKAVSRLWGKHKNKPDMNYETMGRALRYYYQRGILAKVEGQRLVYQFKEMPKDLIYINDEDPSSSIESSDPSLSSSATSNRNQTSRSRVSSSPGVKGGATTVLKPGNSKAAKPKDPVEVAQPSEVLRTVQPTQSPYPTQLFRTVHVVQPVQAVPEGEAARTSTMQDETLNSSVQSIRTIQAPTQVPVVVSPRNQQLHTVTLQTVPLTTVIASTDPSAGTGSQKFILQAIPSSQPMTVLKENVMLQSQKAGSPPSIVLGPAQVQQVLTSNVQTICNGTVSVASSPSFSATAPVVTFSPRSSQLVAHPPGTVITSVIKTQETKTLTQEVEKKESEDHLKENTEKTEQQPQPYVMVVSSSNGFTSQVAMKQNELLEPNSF
UniProt Q6ZTU2, whole entry, looked up: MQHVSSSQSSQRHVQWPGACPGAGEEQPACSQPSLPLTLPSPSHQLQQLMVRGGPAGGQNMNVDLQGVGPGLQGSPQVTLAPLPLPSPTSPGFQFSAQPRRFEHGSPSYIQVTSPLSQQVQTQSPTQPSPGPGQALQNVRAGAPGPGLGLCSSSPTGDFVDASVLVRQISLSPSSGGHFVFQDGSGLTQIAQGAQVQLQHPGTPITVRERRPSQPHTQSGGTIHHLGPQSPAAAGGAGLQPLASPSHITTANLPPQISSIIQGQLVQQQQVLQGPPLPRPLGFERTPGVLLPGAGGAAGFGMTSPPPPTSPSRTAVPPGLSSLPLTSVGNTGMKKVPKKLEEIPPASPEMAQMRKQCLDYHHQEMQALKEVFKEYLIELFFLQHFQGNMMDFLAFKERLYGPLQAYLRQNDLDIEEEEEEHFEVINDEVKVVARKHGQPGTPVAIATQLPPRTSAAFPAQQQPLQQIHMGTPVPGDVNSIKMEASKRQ
UniProt O60841: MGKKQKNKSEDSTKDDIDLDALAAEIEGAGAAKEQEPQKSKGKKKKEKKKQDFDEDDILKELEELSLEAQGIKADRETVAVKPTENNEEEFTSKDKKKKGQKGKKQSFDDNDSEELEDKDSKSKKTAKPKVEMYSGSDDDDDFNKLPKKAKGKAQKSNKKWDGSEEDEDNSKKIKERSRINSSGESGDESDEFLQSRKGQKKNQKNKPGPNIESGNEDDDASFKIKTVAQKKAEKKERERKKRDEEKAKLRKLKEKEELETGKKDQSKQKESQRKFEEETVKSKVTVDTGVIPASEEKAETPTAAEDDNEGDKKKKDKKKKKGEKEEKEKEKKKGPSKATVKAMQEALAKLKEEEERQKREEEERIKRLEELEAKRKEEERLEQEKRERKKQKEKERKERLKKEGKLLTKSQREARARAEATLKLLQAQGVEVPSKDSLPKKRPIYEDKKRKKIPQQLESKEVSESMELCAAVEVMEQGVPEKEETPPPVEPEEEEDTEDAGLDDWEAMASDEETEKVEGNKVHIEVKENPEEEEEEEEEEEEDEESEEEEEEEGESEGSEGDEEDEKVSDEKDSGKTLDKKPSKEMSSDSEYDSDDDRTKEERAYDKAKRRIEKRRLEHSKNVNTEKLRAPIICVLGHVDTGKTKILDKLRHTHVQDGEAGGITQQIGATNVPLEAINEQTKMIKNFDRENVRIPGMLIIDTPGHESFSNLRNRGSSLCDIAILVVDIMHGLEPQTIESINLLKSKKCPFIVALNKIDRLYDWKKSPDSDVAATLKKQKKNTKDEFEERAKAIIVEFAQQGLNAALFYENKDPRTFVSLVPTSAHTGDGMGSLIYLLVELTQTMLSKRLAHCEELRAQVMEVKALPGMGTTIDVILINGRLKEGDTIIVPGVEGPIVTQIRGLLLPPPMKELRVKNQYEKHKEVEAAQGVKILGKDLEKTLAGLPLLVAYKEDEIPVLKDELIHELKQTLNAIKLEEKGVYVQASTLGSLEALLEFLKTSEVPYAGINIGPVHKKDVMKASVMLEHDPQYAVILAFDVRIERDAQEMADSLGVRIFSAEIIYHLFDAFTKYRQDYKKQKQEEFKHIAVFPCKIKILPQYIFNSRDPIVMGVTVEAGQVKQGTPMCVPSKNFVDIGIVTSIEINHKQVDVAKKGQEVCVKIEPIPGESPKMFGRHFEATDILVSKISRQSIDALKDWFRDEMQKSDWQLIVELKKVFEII
UniProt Q9P0I2: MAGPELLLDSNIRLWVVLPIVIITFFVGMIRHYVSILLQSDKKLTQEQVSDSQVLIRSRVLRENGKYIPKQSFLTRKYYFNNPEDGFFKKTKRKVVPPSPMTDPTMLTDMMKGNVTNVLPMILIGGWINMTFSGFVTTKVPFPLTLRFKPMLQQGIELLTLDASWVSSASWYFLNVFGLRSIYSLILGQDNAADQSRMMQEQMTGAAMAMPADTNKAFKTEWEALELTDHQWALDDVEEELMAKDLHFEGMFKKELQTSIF
UniProt O15372, whole entry, looked up: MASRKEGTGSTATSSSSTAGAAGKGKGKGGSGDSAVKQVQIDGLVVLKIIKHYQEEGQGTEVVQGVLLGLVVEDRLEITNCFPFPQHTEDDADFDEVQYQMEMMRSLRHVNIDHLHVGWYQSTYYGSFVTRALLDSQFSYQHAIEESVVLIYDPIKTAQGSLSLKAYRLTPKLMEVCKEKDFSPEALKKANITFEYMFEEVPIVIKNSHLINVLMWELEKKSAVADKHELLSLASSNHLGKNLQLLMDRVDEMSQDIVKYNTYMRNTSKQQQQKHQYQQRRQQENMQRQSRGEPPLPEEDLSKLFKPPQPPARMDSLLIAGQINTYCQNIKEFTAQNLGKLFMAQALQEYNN

What was measured:
Experiment in all cases: log2 fold change, soluble protein after heating vs DMSO (PISA); higher = thermal stabilisation; K562 lysate, 10 uM; active = over 0.2 and 3.5 SD of the protein, either way, in both replicates (recomputed)
[1] = compound: C#Cc1cccc(Nc2ncnc3cc(OCCOC)c(OCCOC)cc23)c1 [erlotinib]
In short: (§1)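 A 30 min treatment with 10 μM compound was applied to crude K562 extract at 1 mg/mL protein in PBS pH 7.4 with 1 mM MgCl2. Heating for 3 min spanned 48°C-58°C, after which aliquots were pooled, adjusted to 0.5% NP-40 at 4°C and spun at 21,000xg for 90 min. TMTpro 16plex LC-MS/MS of the supernatant, with channel sums equalised, gave values recorded as log-two fold change in thermal stability against solvent controls, from duplicates.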

[2] = compound: C/C(=N\NC(=O)C1=CC(=CC=C1)S(=O)(=O)N2CCOCC2)/C3=C(C=CC(=C3)Cl)O
In short: as §1

[3] = compound: C1=CC(=CC=C1C2=NC3=C(N2)C=C(C=C3)C(=O)N)OC4=CC=C(C=C4)Cl
In short: as §1

[4] = compound: C1=CC2=C(C=CC(=C2)/C=C\3/C(=O)NC(=NCC4=CC=CS4)S3)N=C1
In short: as §1

[5] = compound: C1=CC2=NC=CN=C2C=C1/C=C/3\C(=O)NC(=O)S3
In short: as §1

[6] = compound: C1=CC=C(C=C1)C2=NC(=C(N2)C3=CC=NC=C3)C4=CC(=C(C=C4)Cl)O
In short: as §1

[7] = compound: C1=CC=C2C(=C1)C3=NNC4=CC=CC(=C43)C2=O
In short: as §1

[8] = compound: C1CCN(C1)C(=O)NC2=CC=CC(=C2)NC3=NC=C(C(=N3)NCCC4=CN=CN4)Br
In short: as §1

[9] = compound: C1CN(CCC1(CC2=CC=C(C=C2)Cl)N)C3=NC=NC4=C3C=CN4
In short: as §1

[10] = compound: C1COCCN1CCN2C3=CC=CC=C3N=C2NC(=O)C4=CC(=CC=C4)[N+](=O)[O-] [IRAK-1-4 Inhibitor I]
In short: as §1

[11] = compound: C=CC(=O)N1CCC[C@@H](n2nc(-c3ccc(Oc4ccccc4)cc3)c3c(N)ncnc32)C1 [ibrutinib]
In short: as §1

[12] = compound: CC(=O)c1cnc2ccc(-c3cc(Cl)c(O)c(Cl)c3)nc2c1N[C@H]1CC[C@H](CN(C)C)CC1
In short: as §1

[13] = compound: CC(C)(C)Cn1c(N)nc2ccc(-c3[nH]c(C(C)(C)C)nc3-c3ccc(F)cc3)nc21 [ralimetinib]
In short: as §1

[14] = compound: CC(C)(O)CC(=O)NCCn1ccc2ncnc(Nc3ccc(Oc4cccc(C(F)(F)F)c4)c(Cl)c3)c21
In short: as §1

[15] = compound: CC(C)C1=C2N=C(C=C(N2N=C1)NCC3=CC=CC=C3)NCCCCCCN
In short: as §1

[16] = compound: CC1=C(C(CC(=O)N1)C2=CC=C(C=C2)C(F)(F)F)C(=O)NC3=C(C=C4C(=C3)C=NN4)F
In short: as §1

[17] = compound: CC1=C(C2=C(C=C1)C(=O)C3=CC=CC=C3N2CCCN)C
In short: as §1

[18] = compound: CC1=C(C=C(C=C1)NC(=O)C2=CC(=CC=C2)C(C)(C)C#N)NC3=CC4=C(C=C3)N=CN(C4=O)C
In short: as §1

[19] = compound: CC1=C(C=C(C=C1)NC(=O)C2=CC(=CC=C2)N(C)C)NC(=O)C3=CC=C(C=C3)O
In short: as §1

[20] = compound: CC1=CC=C(C=C1)SC2=C3C=C(SC3=CN=C2)C(=O)N
In short: as §1

Measured: log2 fold change

ELOC (UniProt Q15369)
inactive: [1] 0.025 | [2] 0.065 | [3] -0.02 | [4] 0.016 | [5] -0.033 | [6] -0.002 | [7] -0.008 | [8] 0.005 | [9] 0.036 | [10] 0.004 | [11] 0.06 | [12] -0.024 | [13] 0.027 | [14] -0.05 | [15] 0.013 | [16] -0.07 | [17] 0.007 | [18] 0.068 | [19] -0.067 | [20] 0.05

ERCC6L (UniProt Q2NKX8)
inactive: [1] 0.01 | [2] -0.098 | [3] 0 | [4] 0.016 | [5] -0.017 | [6] -0.009 | [7] -0.018 | [8] 0.015 | [9] -0.009 | [10] -0.021 | [11] -0.011 | [12] -0.038 | [13] 0.006 | [14] 0.008 | [15] 0.001 | [16] -0.004 | [17] 0 | [18] -0.014 | [19] 0.02 | [20] -0.005

ERGIC1 (UniProt Q969X5)
inactive: [1] -0.007 | [2] -0.169 | [3] 0.006 | [4] -0.017 | [5] 0.032 | [6] -0.067 | [7] -0.036 | [8] -0.019 | [9] -0.02 | [10] -0.02 | [11] 0.027 | [12] 0.014 | [13] -0.032 | [14] -0.044 | [15] -0.008 | [16] -0.005 | [17] -0.029 | [18] -0.039 | [19] 0.019 | [20] -0.003

EIF4H (UniProt Q15056)
inactive: [1] -0.014 | [2] 0.055 | [3] 0.025 | [4] 0.006 | [5] 0.007 | [6] -0.015 | [7] 0.032 | [8] 0.004 | [9] 0.001 | [10] 0.014 | [11] -0.029 | [12] -0.007 | [13] -0.017 | [14] -0.022 | [15] 0 | [16] 0.007 | [17] 0.007 | [18] 0.003 | [19] -0.013 | [20] -0.042

EML2 isoform 3 (UniProt O95834)
inactive: [1] -0.011 | [2] 0.023 | [3] 0.005 | [4] 0.008 | [5] 0.001 | [6] 0.018 | [7] 0.028 | [8] -0.038 | [9] -0.019 | [10] -0.011 | [11] 0.002 | [12] 0.014 | [13] 0.01 | [14] 0.01 | [15] -0.02 | [16] -0.015 | [17] 0.032 | [18] -0.042 | [19] -0.004 | [20] 0.016

EPB41, A0A2R8Y6D0
inactive: [1] 0.134 | [2] 0.064 | [3] -0.187 | [4] -0.012 | [5] -0.004 | [6] 0.066 | [7] -0.004 | [8] -0.042 | [9] 0.054 | [10] -0.071 | [11] 0.04 | [12] 0.007 | [13] 0.171 | [14] 0.094 | [15] -0.061 | [16] -0.012 | [17] 0 | [18] -0.065 | [19] 0.078 | [20] -0.02

ENTPD5 (UniProt O75356)
inactive: [1] -0.006 | [2] 0.192 | [3] -0.044 | [4] 0.07 | [5] -0.114 | [6] 0.007 | [7] -0.134 | [8] -0.051 | [9] 0.003 | [10] -0.027 | [11] 0.076 | [12] -0.013 | [13] -0.018 | [14] -0.002 | [15] 0.011 | [16] -0.007 | [17] -0.018 | [18] -0.042 | [19] -0.067 | [20] -0.001

EML3 (UniProt Q32P44)
inactive: [1] -0.027 | [2] 0.008 | [3] 0.009 | [4] -0.011 | [5] -0.01 | [6] -0.03 | [7] 0.008 | [8] -0.012 | [9] -0.025 | [10] -0.014 | [11] 0.014 | [12] -0.029 | [13] 0.011 | [14] -0.006 | [15] -0.018 | [16] 0.006 | [17] -0.017 | [18] 0.016 | [19] 0.002 | [20] -0.02

EIF2AK2 (UniProt P19525)
inactive: [1] 0.02 | [2] 0.011 | [3] -0.055 | [4] -0.072 | [5] 0.003 | [6] 0.005 | [7] -0.039 | [8] -0.013 | [9] 0.016 | [10] -0.011 | [11] 0.014 | [12] 0.015 | [13] -0.025 | [14] 0.035 | [15] -0.009 | [16] 0.015 | [17] -0.008 | [18] -0.015 | [19] -0.019 | [20] -0.03

ELMO1 (UniProt Q92556)
inactive: [1] -0.003 | [2] -0.065 | [3] -0.004 | [4] -0.024 | [5] -0.005 | [6] -0.023 | [7] 0.007 | [8] -0.02 | [9] 0.003 | [10] 0.005 | [11] -0.012 | [12] 0.094 | [13] -0.019 | [14] -0.049 | [15] 0.063 | [16] -0.273 | [17] -0.024 | [18] 0.028 | [19] 0.026 | [20] -0.027

ELF1 (UniProt P32519)
inactive: [1] 0.052 | [2] -0.012 | [3] 0.094 | [4] -0.018 | [5] -0.026 | [6] 0.022 | [7] 0.015 | [8] -0.058 | [9] 0.023 | [10] -0.005 | [11] -0.008 | [12] 0.063 | [13] 0.004 | [14] -0.014 | [15] 0.037 | [16] 0.021 | [17] -0.007 | [18] 0.003 | [19] 0.03 | [20] -0.007

EP400P1 isoform 6 (UniProt Q6ZTU2)
inactive: [1] 0 | [2] -0.255 | [3] -0.045 | [4] -0.247 | [5] -0.097 | [6] 0.004 | [7] 0.155 | [8] -0.028 | [9] 0.049 | [10] 0.02 | [11] 0.104 | [12] -0.168 | [13] -0.053 | [14] -0.017 | [15] -0.021 | [16] -0.004 | [17] -0.04 | [18] 0.096 | [19] 0.015 | [20] 0.038

EIF5B (UniProt O60841)
inactive: [1] 0.001 | [2] 0.013 | [3] 0.006 | [4] 0.009 | [5] -0.05 | [6] 0.016 | [7] -0.017 | [8] -0.012 | [9] -0.004 | [10] -0.002 | [11] -0.039 | [12] -0.016 | [13] -0.011 | [14] -0.03 | [15] 0.017 | [16] -0.026 | [17] -0.044 | [18] 0.002 | [19] 0.01 | [20] -0.001

EMC3 (UniProt Q9P0I2)
inactive: [1] -0.054 | [2] 0.004 | [3] 0.002 | [4] -0.018 | [5] 0.014 | [6] -0.037 | [7] -0.077 | [8] 0.06 | [9] 0.048 | [10] 0.063 | [11] -0.047 | [12] -0.018 | [13] -0.019 | [14] -0.02 | [15] -0.048 | [16] 0.056 | [17] -0.017 | [18] 0.013 | [19] 0.037 | [20] 0.007

EIF5 (UniProt P55010)
inactive: [1] -0.002 | [2] -0.029 | [3] -0.003 | [4] -0.033 | [5] 0.01 | [6] -0.014 | [7] 0.026 | [8] 0.011 | [9] -0.012 | [10] 0.004 | [11] 0.002 | [12] 0.002 | [13] 0.015 | [14] 0.003 | [15] -0.016 | [16] -0.027 | [17] 0.02 | [18] 0.011 | [19] -0.01 | [20] 0.007

2 consecutive entries already listed, quoted:
ELF1 (UniProt P32519)
inactive: [1] 0.052 | [2] -0.012 | [3] 0.094 | [4] -0.018 | [5] -0.026 | [6] 0.022 | [7] 0.015 | [8] -0.058 | [9] 0.023 | [10] -0.005 | [11] -0.008 | [12] 0.063 | [13] 0.004 | [14] -0.014 | [15] 0.037 | [16] 0.021 | [17] -0.007 | [18] 0.003 | [19] 0.03 | [20] -0.007

EP400P1 isoform 6 (UniProt Q6ZTU2)
inactive: [1] 0 | [2] -0.255 | [3] -0.045 | [4] -0.247 | [5] -0.097 | [6] 0.004 | [7] 0.155 | [8] -0.028 | [9] 0.049 | [10] 0.02 | [11] 0.104 | [12] -0.168 | [13] -0.053 | [14] -0.017 | [15] -0.021 | [16] -0.004 | [17] -0.04 | [18] 0.096 | [19] 0.015 | [20] 0.038

Later entries

EIF3H (UniProt O15372)
inactive: [1] -0.014 | [2] -0.065 | [3] 0.028 | [4] 0.007 | [5] -0.004 | [6] 0.004 | [7] -0.009 | [8] 0.015 | [9] 0.004 | [10] 0.004 | [11] -0.012 | [12] 0 | [13] -0.02 | [14] -0.002 | [15] -0.022 | [16] 0.006 | [17] -0.006 | [18] 0.007 | [19] 0.007 | [20] -0.019
